Assay: BM1 level in samples of calves, lama, alpaca, goat, and beef

C[C@@H](O)[C@H](NC(=O)Nc1ncnc2c1ncn2[C@@H]1O[C@H](CO)C(O)C1O)C(=O)O (stereo partly drawn) [BM1, N6-Carbamoylthreonyl-D-adenosine]
Concentration levels (some samples of calves, lama, alpaca, goat, and beef): 10 to 30 ng/mL | Concentration levels in septic calves (some septic calves): 40 to 80 ng/mL

From US20230236206A1, “PREDICTING A SEPSIS CONDITION” (PHARM-ANALYT LABOR GMBH, priority 2020, published 2023)
